# The list shows a part of the results. These are further read-outs of the screen, such as a control signal, another cell line or another target. No call is given for them. Compounds called inactive in the main read-out are mostly missing here. Words in brackets tell the shape of the fitted curve; partial curves, single points and poor fits give uncertain potencies.
# Assay: qHTS Assay for Lipid Storage Modulators in Drosophila S3 Cells;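 as to cell number change: cells counted by Cell Tracker Red CMTPX staining in the red channel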
# Settings: BODIPY lipid droplet fluorescence, 18-24 h; for cell number change: measured here: cell count max response, cells fed with added oleic acid
# Procedure, shortened: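 Laser-scanning cytometry quantifies lipid droplet accumulation (500–530 nm total intensity; droplet/cell object ratio) in oleic acid-fed (400 uM added) Drosophila S3 cells treated with a concentration series. 20 uM Triacsin C defined 100% inhibition.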
# [1] = measured here: lipid fluorescence (Fed channel) AC50, cells fed with added oleic acid
# [2] = measured here: cell number channel AC50, cells fed with added oleic acid
Compound,cell number change [%],AC50 [1],AC50 [2]
C/C(CC(=O)Nc1ccccn1)=N\NC(=O)c1ccc([N+](=O)[O-])cc1Cl,0.435,"6510 nM [falling, single point]",–
CC1(C)Cc2c(cnn2-c2cccc(F)c2)C(NC(=O)c2csnn2)C1 (configuration not stated),-18.1,"146 nM [falling, full curve]",–
O=C(NCC1CC1)Nc1ccc(Cl)cc1,-4.17,"29100 nM [falling, single point]",–
CN(C(=O)COC(=O)COc1ccc(Cl)cc1Cl)c1c(N)n(Cc2ccccc2)c(=O)[nH]c1=O,-26.1,–,–
CC(Cc1ccccc1)NC(=O)C1CCCNC1=O (configuration not stated),-21.9,"1640 nM [falling, full curve, poor fit]","2310 nM [falling, full curve, poor fit]"
CN1CCN(C(=O)C2CCCN(S(=O)(=O)c3ccc(Br)cc3)C2)CC1 (configuration not stated),8.96,–,–
COC(=O)c1nnn(-c2cccc(Cl)c2)c1C(=O)OC,33.1,"411 nM [rising, full curve, poor fit]",–
Cc1cccc(-n2c(CNC(=O)c3ccc(S(=O)(=O)N4CCCC4)cc3)n[nH]c2=S)c1,-25.5,–,–
CCc1cccc(C)c1NC(=O)CCCN1C(=O)NC(C)(C)C1=O,-1.55,"29100 nM [falling, partial curve, poor fit]",–
O=C(O)C(C(=O)/C=C/c1ccco1)=C1SCCS1,1.55,"65.1 nM [falling, full curve, poor fit]",–
COc1ccc(NS(=O)(=O)c2cc(OCC(N)=O)c(C)cc2Cl)cc1,–,"29100 nM [rising, single point]",–
Cc1cccn2c(=O)c(C=O)c(N3CCCCCC3)nc12,3.1,–,"920 nM [rising, partial curve]"
Cc1cc2c(=O)n(C)c(SCC(=O)Nc3ccccc3)nc2s1,13.5,"580 nM [rising, full curve, poor fit]",–
O=C(c1ccco1)N1CCN(C(=O)c2cnn3cccnc23)CC1,-40.4,"231 nM [falling, partial curve, poor fit]","32600 nM [falling, partial curve]"
CCN(CCCNS(=O)(=O)c1ccc2c(c1)CCN2C(C)=O)c1cccc(C)c1,–,–,"92 nM [rising, single point]"
CS(=O)(=O)N(CC(=O)NCc1ccc2c(c1)OCO2)c1ccc(Cl)cc1,-7.65,"366 nM [rising, partial curve, poor fit]","32.6 nM [falling, full curve, poor fit]"
COc1cc(OC)cc(C(=O)Nc2ccc(N(C)C)c3ccccc23)c1,6.3,–,–
CCOc1ccc(NC(=O)CSc2nc(NS(=O)(=O)c3ccc(C)cc3)cc(=O)[nH]2)cc1,-0.806,–,–
CSc1ccc(CN(C)CC(=O)Nc2c(F)cccc2F)cc1,16,"146 nM [falling, full curve, poor fit]","146 nM [falling, full curve, poor fit]"
O=C(Nc1ccc(Cl)cn1)C1CCCN(c2ncnc3c2nc2n3CCCCC2)C1 (configuration not stated),–,"580 nM [rising, single point]",–

Compound,cell number change [%],AC50 [1],AC50 [2]
O=C(NC1(C(F)(F)F)NC(=O)N(Cc2cccnc2)C1=O)c1cccs1 (configuration not stated),14.4,"29100 nM [rising, single point]",–
O=c1c2ccccc2nc2c3ccccc3c(NCCN3CCOCC3)nn12,39.4,"6510 nM [rising, partial curve, poor fit]","1300 nM [rising, full curve]"
Nc1ccc2oc3ccc(N)cc3c(=O)c2c1,57.6,"8200 nM [rising, partial curve]","2910 nM [rising, full curve]"
COc1ccc(N2CCN(CCCNC(=O)C(=O)c3c(C)[nH]c4ccccc34)CC2)cc1,30.7,–,"16400 nM [rising, single point]"
COc1ccc(NC(=O)CCS(=O)(=O)c2ccc(OC)cc2)cc1,101,"18400 nM [rising, partial curve]","18400 nM [rising, partial curve]"
CCCOC(=O)c1ccc(Oc2cn[nH]c2-c2ccc(OCC)cc2O)cc1,-98.6,"32600 nM [falling, single point]","10300 nM [falling, partial curve]"
CCCN(C(=O)Cc1nc(N)n[nH]1)C1(C(=O)Nc2ccccc2C)CCCCC1,–,–,"1840 nM [falling, partial curve, poor fit]"
Cc1ccc(C(=O)COC(=O)CNC(=O)c2cccs2)cc1C,14.2,"23100 nM [rising, single point]",–
Cc1ccc(CSc2ccc(S(=O)(=O)N3CCOCC3)cn2)cc1,-32,"6510 nM [rising, single point]","29100 nM [falling, single point]"
Cc1nc(S/C(=C\c2ccc(OCc3ccccc3Cl)cc2)C(=O)O)n[nH]1,-6.32,–,–
O=C(Nc1ccc(Cl)cc1)/C(=C/c1ccc([N+](=O)[O-])cc1)c1nc2ccccc2s1,-62.1,"14100 nM [falling, partial curve]",–
O=C1CN(c2ccc(Cl)cc2)C(=O)CN1NC(=S)Nc1ccc(Cl)cc1,-16,–,–
COc1ccc(S(=O)(=O)NCCc2c(C)nn(C)c2Oc2ccccc2)cc1,85.7,"3660 nM [falling, partial curve]","29100 nM [rising, single point]"
O=C(Nc1ccn(-c2ccccc2)n1)c1ccc(Cl)cc1,12.9,"7310 nM [rising, partial curve, poor fit]",–
N#CC1=C(N)OC2=C(C(=O)CCC2)[C@]12C(=O)N(CC(N)=O)c1ccccc12,-20.1,–,–
Cc1ccc(N2C(=O)C3C(C2=O)N2C(c4cccs4)C4C(=O)N(c5ccc(C)cc5)C(=O)C4N2C3c2cccs2)cc1 (configuration not stated),12.9,"4610 nM [falling, single point]",–
Cc1cc(S(=O)(=O)NCC(=O)O)ccc1F,-28.7,"23100 nM [falling, partial curve]",–
O=C(Cc1cccs1)N(Cc1ccco1)C1(C(=O)NC2CCCC2)CCCCC1,–,"1640 nM [falling, partial curve, poor fit]",–
O=C(Nc1cccc(Cl)c1)OCc1cncs1,7.91,"103 nM [rising, full curve, poor fit]",–
c1ccc(C2C/C(=N\N3CCOCC3)c3ccccc3O2)cc1 (configuration not stated),31.4,"3260 nM [rising, full curve]","2910 nM [rising, partial curve]"

Compound,cell number change [%],AC50 [1],AC50 [2]
NC(=O)COc1ccc2oc(=O)cc(-c3cc4ccccc4o3)c2c1,-5.93,–,–
Cc1cc(C(C)c2ccccc2)c(O)c(CN2CCOCC2)c1C (configuration not stated),-23.9,"5170 nM [falling, full curve, poor fit]",–
O=C(CNC(=O)c1cccs1)NCCc1ccco1,7.95,"4110 nM [rising, full curve, poor fit]",–
COc1cccc(-n2c(SC)nnc2-c2c[nH]c3ccccc23)c1,–,"103 nM [rising, single point]",–
Cc1nn(Cc2c(Cl)cccc2Cl)c(Cl)c1/C=C/C(=O)OCC(=O)NCC(F)(F)F,-21.3,"23100 nM [falling, single point]",–
COc1ccc(NC(=O)CSc2ccccn2)c([N+](=O)[O-])c1,–,"820 nM [falling, full curve]","920 nM [falling, full curve]"
Cc1cc(C)nc(N(C#N)Cc2ccc(Cl)cc2)n1,8.59,"920 nM [rising, partial curve]",–
COc1ccc(CCNS(=O)(=O)c2ccccc2)cc1OC,3.35,–,–
CCCCc1nnc(SCC(=O)NC2CCCCC2)n1C,-13.6,–,–
COc1ccc([C@H]2CC(=O)C=C(c3cc(C(F)(F)F)cc(C(F)(F)F)c3)C2)cc1,-15.8,–,–
CCOC(=O)Nc1ccc(C)cc1Br,147,–,"29100 nM [rising, partial curve, poor fit]"
CCOC(=O)c1c(C)[nH]c(C(=O)CSc2nccc(C)n2)c1C,49.5,"29100 nM [rising, partial curve]","4.11 nM [rising, full curve, poor fit]"
C=C(C)Cn1c(SCC(=O)O)nnc1-c1ccc(C(C)(C)C)cc1,–,"1840 nM [falling, partial curve, poor fit]",–
CC(C(=O)N1CCc2ccccc21)N1CCN(Cc2ccccc2)CC1 (configuration not stated),-11.1,"580 nM [falling, single point]",–
CCC1(C)Cc2c(sc3c2c(=O)n(C)c2nnc(SCc4ccc5c(c4)OCO5)n32)CO1 (configuration not stated),-4.04,"16400 nM [rising, single point]","580 nM [rising, full curve]"
COc1ccc(S(=O)(=O)N2CCc3ccccc3C2)cc1C(=O)O,1.39,–,–
COc1ccc(NS(=O)(=O)c2cccc(C(=O)NNC(=O)COc3ccccc3)c2)cc1,-48,"116 nM [falling, full curve, poor fit]","231 nM [falling, full curve]"
COC(=O)c1ccccc1NC(=O)C1CCN(C(=O)c2cc(OC)cc(OC)c2)CC1,43.8,–,"651 nM [rising, full curve]"
N#C/C=C1\n2c(nc3ccccc32)OC12CCCCC2,4.26,"103 nM [rising, full curve, poor fit]",–

# Looked up one by one from the entries so far (2):
Compound,cell number change [%],AC50 [1],AC50 [2]
CCN(CCCNS(=O)(=O)c1ccc2c(c1)CCN2C(C)=O)c1cccc(C)c1,–,–,"92 nM [rising, single point]"
CS(=O)(=O)N(CC(=O)NCc1ccc2c(c1)OCO2)c1ccc(Cl)cc1,-7.65,"366 nM [rising, partial curve, poor fit]","32.6 nM [falling, full curve, poor fit]"
